# Data: the supplement of paper PMC6411743
# By UniProt entry, the sequences of proteins in these tests, tags left out. Where a name states a change or a piece, a line headed by the entry shows the natural chain unless it says otherwise.
# UniProt O60925, whole entry: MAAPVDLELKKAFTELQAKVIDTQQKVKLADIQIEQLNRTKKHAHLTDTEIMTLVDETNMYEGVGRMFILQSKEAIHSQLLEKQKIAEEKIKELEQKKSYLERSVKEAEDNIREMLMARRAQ
# UniProt Q5TEU4: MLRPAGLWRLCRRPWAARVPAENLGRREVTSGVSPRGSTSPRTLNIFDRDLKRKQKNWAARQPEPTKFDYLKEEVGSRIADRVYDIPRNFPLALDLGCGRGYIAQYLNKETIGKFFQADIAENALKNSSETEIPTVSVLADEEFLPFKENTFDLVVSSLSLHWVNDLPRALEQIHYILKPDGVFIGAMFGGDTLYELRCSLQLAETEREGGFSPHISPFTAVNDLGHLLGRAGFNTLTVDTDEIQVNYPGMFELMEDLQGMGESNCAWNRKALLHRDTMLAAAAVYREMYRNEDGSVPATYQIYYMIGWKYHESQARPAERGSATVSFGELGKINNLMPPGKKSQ
# UniProt Q9BZL6: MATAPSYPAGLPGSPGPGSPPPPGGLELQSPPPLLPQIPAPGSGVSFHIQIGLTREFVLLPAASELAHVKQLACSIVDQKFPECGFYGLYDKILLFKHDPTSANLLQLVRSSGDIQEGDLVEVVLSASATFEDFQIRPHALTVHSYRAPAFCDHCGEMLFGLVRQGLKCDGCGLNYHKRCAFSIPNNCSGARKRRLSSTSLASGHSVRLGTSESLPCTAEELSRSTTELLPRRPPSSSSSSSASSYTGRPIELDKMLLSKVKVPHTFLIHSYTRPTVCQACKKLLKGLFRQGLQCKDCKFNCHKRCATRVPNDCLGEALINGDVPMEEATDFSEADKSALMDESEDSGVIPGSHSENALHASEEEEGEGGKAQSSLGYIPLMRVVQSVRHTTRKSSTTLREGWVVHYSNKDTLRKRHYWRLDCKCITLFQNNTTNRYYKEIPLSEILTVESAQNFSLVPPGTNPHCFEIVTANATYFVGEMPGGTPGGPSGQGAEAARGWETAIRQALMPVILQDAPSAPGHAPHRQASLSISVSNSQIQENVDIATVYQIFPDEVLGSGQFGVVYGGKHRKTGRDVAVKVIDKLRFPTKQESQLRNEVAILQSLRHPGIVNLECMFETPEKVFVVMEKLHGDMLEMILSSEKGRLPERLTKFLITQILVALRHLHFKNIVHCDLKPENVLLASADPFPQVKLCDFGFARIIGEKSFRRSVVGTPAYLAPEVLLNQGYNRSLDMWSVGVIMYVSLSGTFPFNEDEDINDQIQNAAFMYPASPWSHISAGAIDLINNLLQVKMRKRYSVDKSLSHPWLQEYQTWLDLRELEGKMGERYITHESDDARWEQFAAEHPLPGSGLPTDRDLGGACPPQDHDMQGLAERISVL
# UniProt Q5TC12: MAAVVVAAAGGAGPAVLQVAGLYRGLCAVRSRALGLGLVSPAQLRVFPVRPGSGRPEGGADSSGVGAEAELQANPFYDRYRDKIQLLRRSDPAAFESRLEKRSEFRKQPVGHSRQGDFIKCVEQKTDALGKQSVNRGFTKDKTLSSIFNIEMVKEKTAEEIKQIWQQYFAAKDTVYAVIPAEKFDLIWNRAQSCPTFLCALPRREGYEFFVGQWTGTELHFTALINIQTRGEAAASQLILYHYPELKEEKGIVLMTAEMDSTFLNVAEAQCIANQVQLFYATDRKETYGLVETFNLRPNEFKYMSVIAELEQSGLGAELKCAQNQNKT
# UniProt Q9NQG6: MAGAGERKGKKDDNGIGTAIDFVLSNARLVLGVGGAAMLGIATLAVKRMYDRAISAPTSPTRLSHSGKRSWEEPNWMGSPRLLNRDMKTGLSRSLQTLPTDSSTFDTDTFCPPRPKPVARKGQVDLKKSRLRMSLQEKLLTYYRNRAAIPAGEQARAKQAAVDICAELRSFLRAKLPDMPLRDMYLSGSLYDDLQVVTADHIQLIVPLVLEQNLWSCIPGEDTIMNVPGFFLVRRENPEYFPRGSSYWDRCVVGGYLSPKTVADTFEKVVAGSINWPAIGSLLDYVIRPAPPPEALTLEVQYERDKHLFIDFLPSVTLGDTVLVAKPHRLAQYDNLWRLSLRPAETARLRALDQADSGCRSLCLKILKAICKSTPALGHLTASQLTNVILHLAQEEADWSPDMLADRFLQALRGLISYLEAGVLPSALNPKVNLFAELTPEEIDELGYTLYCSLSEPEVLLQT
# UniProt A6NDG6: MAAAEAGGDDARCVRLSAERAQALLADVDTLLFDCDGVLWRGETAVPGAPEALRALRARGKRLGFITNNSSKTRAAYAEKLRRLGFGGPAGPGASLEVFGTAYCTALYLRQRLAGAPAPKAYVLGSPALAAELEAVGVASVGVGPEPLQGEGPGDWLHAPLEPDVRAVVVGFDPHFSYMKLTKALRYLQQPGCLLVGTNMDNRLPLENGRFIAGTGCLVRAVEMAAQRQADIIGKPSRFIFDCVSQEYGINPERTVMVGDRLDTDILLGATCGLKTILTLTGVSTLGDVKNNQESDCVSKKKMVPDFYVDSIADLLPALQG
# UniProt P63165, whole entry: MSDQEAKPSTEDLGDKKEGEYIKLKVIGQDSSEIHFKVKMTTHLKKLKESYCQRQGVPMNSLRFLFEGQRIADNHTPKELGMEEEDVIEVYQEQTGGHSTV
# UniProt Q9GZM5: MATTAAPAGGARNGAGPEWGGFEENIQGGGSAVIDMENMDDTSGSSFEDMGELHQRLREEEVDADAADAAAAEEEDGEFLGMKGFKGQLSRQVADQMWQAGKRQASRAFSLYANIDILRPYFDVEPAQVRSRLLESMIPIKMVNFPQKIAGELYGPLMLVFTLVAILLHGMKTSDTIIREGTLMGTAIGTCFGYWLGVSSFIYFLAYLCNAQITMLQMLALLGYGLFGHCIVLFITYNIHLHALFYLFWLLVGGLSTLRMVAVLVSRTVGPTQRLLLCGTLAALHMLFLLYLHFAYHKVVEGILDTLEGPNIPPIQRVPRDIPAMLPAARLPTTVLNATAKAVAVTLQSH
# UniProt A9UHW6: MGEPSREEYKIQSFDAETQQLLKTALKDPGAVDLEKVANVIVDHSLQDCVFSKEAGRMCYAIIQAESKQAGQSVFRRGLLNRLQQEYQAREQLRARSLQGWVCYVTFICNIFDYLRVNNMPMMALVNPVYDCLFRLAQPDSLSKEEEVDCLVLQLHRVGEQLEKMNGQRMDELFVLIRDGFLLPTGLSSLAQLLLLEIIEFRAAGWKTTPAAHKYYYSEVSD
# UniProt Q9C0K0: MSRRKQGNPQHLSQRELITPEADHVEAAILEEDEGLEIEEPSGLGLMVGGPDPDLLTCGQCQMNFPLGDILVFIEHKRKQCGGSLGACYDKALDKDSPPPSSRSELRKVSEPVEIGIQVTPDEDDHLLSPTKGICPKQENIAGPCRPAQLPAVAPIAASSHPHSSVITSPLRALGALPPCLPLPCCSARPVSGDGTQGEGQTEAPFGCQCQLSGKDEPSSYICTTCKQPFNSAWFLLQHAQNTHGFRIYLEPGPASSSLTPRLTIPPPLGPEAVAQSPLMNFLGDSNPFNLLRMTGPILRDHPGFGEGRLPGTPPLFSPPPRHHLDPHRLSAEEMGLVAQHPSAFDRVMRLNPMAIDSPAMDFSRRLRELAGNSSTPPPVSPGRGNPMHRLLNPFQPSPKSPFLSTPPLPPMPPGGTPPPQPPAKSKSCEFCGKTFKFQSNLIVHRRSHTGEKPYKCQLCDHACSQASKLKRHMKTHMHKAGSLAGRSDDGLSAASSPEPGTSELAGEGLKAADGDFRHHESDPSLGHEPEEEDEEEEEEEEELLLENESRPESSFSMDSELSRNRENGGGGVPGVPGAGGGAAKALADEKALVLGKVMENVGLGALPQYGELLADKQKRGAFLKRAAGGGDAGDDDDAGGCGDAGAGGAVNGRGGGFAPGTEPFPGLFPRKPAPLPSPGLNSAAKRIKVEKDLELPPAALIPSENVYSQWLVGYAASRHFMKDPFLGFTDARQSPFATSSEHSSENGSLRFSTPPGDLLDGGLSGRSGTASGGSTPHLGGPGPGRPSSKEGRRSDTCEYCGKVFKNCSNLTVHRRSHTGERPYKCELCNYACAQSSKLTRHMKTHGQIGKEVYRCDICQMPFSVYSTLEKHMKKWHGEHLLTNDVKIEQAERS
# UniProt A6NED2: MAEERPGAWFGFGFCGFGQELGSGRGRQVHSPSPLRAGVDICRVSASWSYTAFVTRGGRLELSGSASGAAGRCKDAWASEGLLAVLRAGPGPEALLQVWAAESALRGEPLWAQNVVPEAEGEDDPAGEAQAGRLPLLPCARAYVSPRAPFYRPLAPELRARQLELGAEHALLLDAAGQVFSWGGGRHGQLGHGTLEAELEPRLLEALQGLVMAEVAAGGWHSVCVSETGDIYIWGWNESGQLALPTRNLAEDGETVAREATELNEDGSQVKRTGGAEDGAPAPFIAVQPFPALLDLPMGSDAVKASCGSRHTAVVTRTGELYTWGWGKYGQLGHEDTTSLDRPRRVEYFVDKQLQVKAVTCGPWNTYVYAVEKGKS
# UniProt Q99439: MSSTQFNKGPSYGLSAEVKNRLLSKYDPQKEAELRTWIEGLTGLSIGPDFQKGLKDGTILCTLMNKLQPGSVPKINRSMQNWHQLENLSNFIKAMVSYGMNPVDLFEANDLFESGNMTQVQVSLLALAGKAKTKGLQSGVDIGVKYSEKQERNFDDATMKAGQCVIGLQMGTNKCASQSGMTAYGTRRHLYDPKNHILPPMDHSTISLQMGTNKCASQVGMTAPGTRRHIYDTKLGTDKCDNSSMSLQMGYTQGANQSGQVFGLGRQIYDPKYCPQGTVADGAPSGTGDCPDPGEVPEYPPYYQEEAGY
# ± gives the standard deviation of the averaged measurements. Some of the results follow.
# Compound: Nc1nc2c(ncn2[C@@H]2O[C@H](COP(=O)(O)OP(=O)(O)OP(=O)(O)O)[C@@H](O)[C@H]2O)c(=O)[nH]1 [guanosine triphosphate]
# Assay: NP40-soluble protein abundance relative to vehicle (solubility fold change) (ratio); higher = more soluble protein in presence of GTP
# Method in brief: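 In three independent experiments, Jurkat crude lysate made by Dounce homogenisation was treated for 10 min at room temperature and then 3 min at 37 °C with eight concentrations ranging from 0.1 to 10 mM. It was then solubilised with 0.8% NP40 plus benzonase for 60 min at 4 °C and ultracentrifuged. The supernatant was TMT-labelled for LC-MS/MS, and each value is the fold change against the detergent-processed vehicle for the same replicate, using vsn-normalised intensities.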
Target,NP40-soluble protein abundance (concentration: 0.1mM),NP40-soluble protein abundance (concentration: 0.5mM),NP40-soluble protein abundance (concentration: 1mM),NP40-soluble protein abundance (concentration: 2mM),NP40-soluble protein abundance (concentration: 4mM),NP40-soluble protein abundance (concentration: 6mM),NP40-soluble protein abundance (concentration: 8mM),NP40-soluble protein abundance (concentration: 10mM)
E5RGS4 and related entries (UniProt O60925),0.995 ± 0.059,0.957 ± 0.11,1.01 ± 0.11,0.893 ± 0.1,0.898 ± 0.12,0.927 ± 0.13,0.92 ± 0.1,0.904 ± 0.086
B3KR61 and related entries (UniProt Q5TEU4),0.868 ± 0.081,0.957 ± 0.18,0.919 ± 0.052,0.896 ± 0.14,0.9 ± 0.094,0.877 ± 0.12,0.869 ± 0.062,0.837 ± 0.14
B4DTS2 and related entries (UniProt Q9BZL6),1.02 ± 0.021,1.04 ± 0.034,0.992 ± 0.053,1.02 ± 0.055,1 ± 0.059,0.97 ± 0.031,0.946 ± 0.045,0.946 ± 0.033
A8MRA7 and related entries (UniProt Q5TC12),0.961 ± 0.017,0.922 ± 0.016,0.954 ± 0.056,0.951 ± 0.061,0.923 ± 0.023,0.87 ± 0.08,0.936 ± 0.011,0.943 ± 0.032
B0QY95 and related entries (UniProt Q9NQG6+B0QY95),1.16 ± 0.056,1.11 ± 0.091,1.07 ± 0.072,1.03 ± 0.086,1.04 ± 0.087,1.04 ± 0.03,1.01 ± 0.015,1.03 ± 0.028
PGP (UniProt A6NDG6),0.992 ± 0.03,0.966 ± 0.018,0.922 ± 0.065,0.893 ± 0.036,0.9 ± 0.049,0.882 ± 0.04,0.849 ± 0.095,0.852 ± 0.06
B8ZZN6 and related entries (UniProt P63165),0.891 ± 0.086,0.85 ± 0.049,1.02 ± 0.11,1.02 ± 0.057,0.985 ± 0.087,1.03 ± 0.058,0.989 ± 0.091,1.08 ± 0.12
D6RFI3 and related entries (UniProt Q9GZM5),1.146 ± 0.0073,1.05 ± 0.047,1.12 ± 0.083,1.013 ± 0.0078,0.997 ± 0.09,1.02 ± 0.053,1.04 ± 0.085,1.02 ± 0.15
UniProt A9UHW6 and related entries,0.862 ± 0.026,0.828 ± 0.048,0.981 ± 0.048,0.952 ± 0.085,0.908 ± 0.031,0.981 ± 0.051,0.859 ± 0.099,0.94 ± 0.035
D3YTK1 and related entries (UniProt Q9C0K0),1.02 ± 0.018,1.05 ± 0.034,1.19 ± 0.05,1.21 ± 0.073,1.31 ± 0.15,1.3 ± 0.14,1.44 ± 0.16,1.43 ± 0.2
UniProt A6NED2 and related entries,1.05 ± 0.095,1.042 ± 0.0065,1.06 ± 0.026,1.09 ± 0.13,1.04 ± 0.077,1.08 ± 0.094,1.009 ± 0.009,1.018 ± 0.0084
D6RIF6 and related entries (UniProt Q9P270),1.02 ± 0.043,0.944 ± 0.019,1.04 ± 0.06,1.07 ± 0.024,1.06 ± 0.034,1.06 ± 0.033,1.11 ± 0.073,1.13 ± 0.058
B4DDF4 and related entries (UniProt Q99439),0.872 ± 0.046,0.895 ± 0.059,0.901 ± 0.059,0.883 ± 0.098,0.843 ± 0.099,0.885 ± 0.096,0.855 ± 0.067,0.905 ± 0.076
